Measurements reported in PubChem BioAssay AID2685 (National Center for Advancing Translational Sciences (NCATS), 2010).
The list shows a part of the results. These are further read-outs of the screen, such as a control signal, another cell line or another target. No call is given for them. Compounds called inactive in the main read-out are mostly missing here. The note in brackets gives the kind of curve behind each potency; many fits are weak.

Assay: qHTS Assay for Lipid Storage Modulators in Drosophila S3 Cells;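 on cell number change: cells counted by Cell Tracker Red CMTPX staining in the red channel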
Conditions: BODIPY lipid droplet fluorescence, 18-24 h; for cell number change: measured here: cell count max response, cells fed with added oleic acid
Procedure, shortened: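 Drosophila S3 cells got compounds at several concentrations plus oleic acid (400 uM solution). Laser-scanning cytometry with 488 nm excitation read lipid droplets at 500-530 nm and cells at 575-640 nm. Percent activity was relative to 20 uM Triacsin C.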

[1] = measured here: lipid fluorescence (Fed channel) AC50, cells fed with added oleic acid
[2] = measured here: cell number channel AC50, cells fed with added oleic acid

Cc1c(OCC(=O)N(C)c2ccccc2)ccc2c3c(c(=O)oc12)CCC3
cell number change: 7.89%

O=C(Nc1nc2c(s1)CCCC2)c1ccc(S(=O)(=O)N2CCCc3ccccc32)cc1
cell number change: 6.34%
AC50 [1]: 1.84 µM [rising, partial curve, poor fit]

Cc1ccc(/C=N/n2cnc3sc(C)c(C)c3c2=O)o1
AC50 [2]: 1.84 µM [rising, single point]

O=C(c1cc2cc(Cl)cc(Cl)c2oc1=O)N1CCOCC1
cell number change: -0.74%

COc1ccc(CN2C(=O)c3ccccc3C2OC)cc1 (stereo not drawn)
cell number change: -1.66%

O=C(CCCC(=O)N(CC(=O)NC1CCCC1)Cc1ccc2c(c1)OCO2)Nc1ccccn1
AC50 [1]: 0.116 µM [falling, full curve, poor fit]

COc1ccc(OC)c(-c2csc(NC(=O)Cn3[nH]c(=O)c4ccccc4c3=O)n2)c1
cell number change: 18.3%
AC50 [1]: 29.1 µM [falling, single point]

COc1ccc(NC(=O)CSc2nc(N)c(-c3ccccc3)c(=O)[nH]2)cc1
cell number change: -0.773%

COc1ccc2c(c1OC)C(=O)OC2CC(=O)c1ccc(N(C)C)cc1 (stereo not drawn)
cell number change: 33.8%
AC50 [2]: 18.4 µM [rising, single point]
AC50 [1]: 0.13 µM [rising, full curve, poor fit]

COc1ccc(CN2CC(=O)N3[C@H]4c5ccccc5OC[C@@H]4[C@H](c4ccccc4)[C@]3(C)C2=O)cc1
cell number change: 40.6%
AC50 [2]: 25.9 µM [rising, single point]

Cc1ccc(N2C(=O)CC(Sc3nc(C)cc(C)n3)C2=O)cc1 (stereo not drawn)
cell number change: -16.8%
AC50 [1]: 0.517 µM [rising, partial curve, poor fit]

CC1CC1C(=O)N(C)CC(=O)Nc1ccc(Cl)c(C(F)(F)F)c1 (stereo not drawn)
cell number change: 28%

Cc1cc(S(=O)(=O)N(Cc2ccccc2F)C2CC2)ccc1-n1cnnn1
cell number change: -24.1%
AC50 [1]: 11.6 µM [falling, partial curve]

Cc1ccccc1-n1c(SCC(=O)NC2CCS(=O)(=O)C2)nc2ccccc2c1=O (stereo not drawn)
cell number change: -9.61%
AC50 [1]: 29.1 µM [falling, single point]

COc1ccc(N2CCN(C(=O)c3sc4ncn(CC(=O)N5CCCCC5C)c(=O)c4c3C)CC2)cc1 (stereo not drawn)
cell number change: -37.3%
AC50 [2]: 16.4 µM [falling, single point]

Cc1ccc(C)c(CN2C(=O)CSc3ccc(C(=O)NCC(C)CN4CCC(C)CC4)cc32)c1 (stereo not drawn)
AC50 [1]: 29.1 µM [falling, single point]

COC(=O)[C@]1(C)CCC[C@@]2(C)C3CC[C@@]4(C)C[C@]3(CCC21)CC(=O)N4Cc1ccc(OC)cc1 (stereo partly drawn)
cell number change: 3.82%
AC50 [1]: 3.66 µM [falling, single point]

CCc1ccc(C(=O)CSC2=C(C#N)C(c3ccco3)C(C(C)=O)=C(C)N2)cc1 (stereo not drawn)
cell number change: -54.3%
AC50 [2]: 29.1 µM [falling, single point]

Cc1ccc(N2C(=O)C(NC(=O)c3ccccc3F)(C(F)(F)F)C3=C2CC(C)(C)CC3=O)cc1 (stereo not drawn)
cell number change: -14.2%
AC50 [1]: 16.4 µM [falling, single point]

Cc1cc(NC(=O)COC(=O)C2CCN(S(=O)(=O)c3ccc(Cl)cc3)CC2)no1
cell number change: 35.6%
AC50 [2]: 0.291 µM [rising, full curve, poor fit]

Cc1ccc2cc(CN(Cc3nnnn3C3CCCCC3)CC3CCCO3)c(=O)[nH]c2c1 (stereo not drawn)
cell number change: -0.628%

Nc1nc(SCC(=O)c2c(N)n(C3CC3)c(=O)[nH]c2=O)n[nH]1
cell number change: -19.5%

COc1ccccc1OCC(=O)NN1Cc2ccccc2C1=N
cell number change: -28.3%
AC50 [2]: 0.82 µM [falling, full curve]
AC50 [1]: 23.1 µM [falling, partial curve]

O=C(c1ccccc1Oc1nnnn1-c1ccccc1)N1CCOCC1
cell number change: -34%
AC50 [2]: 0.092 µM [falling, full curve, poor fit]
AC50 [1]: 1.03 µM [falling, full curve]

Cc1ccc(C(=O)CCNc2ccc(F)c(Cl)c2)o1
cell number change: -6.77%
AC50 [1]: 3.66 µM [rising, full curve, poor fit]

CCCCNC(=O)NC1CCCC1
cell number change: 4.01%
AC50 [2]: 6.51 µM [falling, single point]

CCC(=O)N(CC)c1nc(-c2cc(OC)ccc2OC)cs1
cell number change: 0.707%
AC50 [1]: 25.9 µM [rising, single point]

CC(C)(C)Nc1nc(-c2ccc3c(c2)CCN3C(=O)C2CC2)cs1
cell number change: -19.2%
AC50 [2]: 0.184 µM [rising, full curve, poor fit]

COCCN=C1Sc2nc3c(C)cccc3cc2CN1Cc1ccco1
cell number change: -0.753%

COc1ccc(S(=O)(=O)Oc2ccccc2C(N)=O)cc1
cell number change: -15.6%

O=C(NCc1ccc(F)cc1)C1CCC(CNS(=O)(=O)c2cccs2)CC1 (stereo not drawn)
cell number change: 2.25%

COc1ccc(NC(=O)COC(=O)COc2cccc(Br)c2)cc1OC
AC50 [1]: 11.6 µM [falling, partial curve]

O=C(CCS(=O)(=O)c1ccccc1)Nc1nc2c(s1)COc1ccccc1-2
AC50 [1]: 0.291 µM [rising, partial curve]

CC1(c2ccc(OC(F)F)cc2)NC(=O)N(/N=C/c2c(O)ccc3ccccc23)C1=O (stereo not drawn)
cell number change: -78.1%
AC50 [2]: 29.1 µM [falling, single point]

Cc1cccc(OCC(=O)Nc2ccc(S(=O)(=O)Nc3ccccn3)cc2)c1
AC50 [1]: 0.366 µM [rising, partial curve, poor fit]

CC(=O)N1CCN(c2ccc(NCc3cccc(C)c3)cc2)CC1
cell number change: -6.75%
AC50 [1]: 4.11 µM [falling, single point]

CC1=C(C(=O)OCc2ccccc2)C(c2ccccc2Br)NC(=O)N1 (stereo not drawn)
cell number change: 5.41%

O=C(NNC1CC(=O)N(c2cccc(Cl)c2)C1=O)c1cccnc1 (stereo not drawn)
cell number change: -33.3%
AC50 [2]: 29.1 µM [falling, single point]
AC50 [1]: 6.51 µM [falling, single point]

C/C=C/C(=O)OCC(=O)Nc1ccc(OC)c(OC)c1
cell number change: 44.2%
AC50 [2]: 0.146 µM [rising, full curve, poor fit]
AC50 [1]: 29.1 µM [rising, single point]

O=C(COC(=O)c1cc([N+](=O)[O-])ccc1N1CCOCC1)Nc1ncc(Cl)cc1Cl
cell number change: -1.2%

COc1cccc(/C=N/NC(=O)c2cccc3ccccc23)c1
cell number change: -10.9%
